Measured values: paper PMC6593165
No constants are given. Whether binding was seen depends on the method and setting. A result given as binding can be weak or reduced; the word gives no strength. Sequences can lack the tags named with a protein. For some assays here: In cells and extracts the contact can be indirect. Values belong to the binder of their own block, whether it stands above or below them.

What was measured:
GST-WRKY72 (rice) = assay: pull-down; GST pull-down in vitro with proteins expressed and purified in E. coli; immunoblotting with anti-GST and anti-His antibodies; both purified
WRKY72-FLAG (rice) = assay: co-IP; proteins extracted from infiltrated Nicotiana benthamiana leaves; precipitates immunoblotted with GFP and FLAG antibodies

binding (GST-WRKY72 (rice)): binds
B1: His-SAPK10 (enzyme, UniProt Q75H77 1-362)
chain: MDRAALTVGPGMDMPIMHDGDRYELVRDIGSGNFGVARLMRSRADGQLVAVKYIERGDKIDENVQREIINHRSLRHPNIIRFKEVILTPTHLAIVMEYASGGELFERICNAGRFSEDEARFFFQQLISGVSYCHSMQVCHRDLKLENTLLDGSTAPRLKICDFGYSKSSVLHSQPKSTVGTPAYIAPEVLLKKEYDGKIADVWSCGVTLYVMLVGAYPFEDPDEPKNFRKTIQRILGVQYSIPDYVHISPECRDLIARIFVANPATRISIPEIRNHPWFLKNLPADLMDDSKMSSQYEEPEQPMQSMDEIMQILAEATIPAAGSGGINQFLNDGLDLDDDMEDLDSDPDLDVESSGEIVYAM

binding (WRKY72-FLAG (rice)): binds
B2: SAPK10-GFP (enzyme, UniProt Q75H77 1-362)
chain: B1 chain
